# Data published in the supplement of paper PMC8256030.
# Values joined by “and” are separate entries in the source; they are usually repeats but may differ in a detail not shown here. Equal values may be shown once. Where a name gives a salt, the structure may show the parent alone. This is one part of the list. This data set is noisy: repeats of one test often differ as much as different tests do.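 HEK293T cells were given each compound shortly before transfection with a reporter in which red mCherry is followed by the SARS-CoV-2 frameshift element and then GFP in the −1 frame, so GFP appears only after frameshifting.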
# System: HEK293T
# Assay: percent viability (nuclei count) relative to control; higher = more viable cells
# Conditions: 10 µM; 24 h
row,SMILES,percent viability
1,COc1cc2nc(N(C)CCCNC(=O)C3CCCO3)nc(N)c2cc1OC (stereo not given) [alfuzosin],162% and 323%
2,CC1=C(C(=O)O)N2C(=O)[C@@H](NC(=O)[C@H](N)C3=CCC=CC3)[C@H]2SC1,185%
3,CC(C)(Oc1ccc(C2CCCc3ccccc32)cc1)C(=O)O (stereo not given) [nafenopin],129%
4,CNCCC(Oc1ccccc1OC)c1ccccc1 (stereo not given) [Nisoxetine·HCl],362%
5,c1ccc(Cc2nc3ccccc3[nH]2)cc1 [bendazol],25.4%
6,CNC[C@H](O)c1ccc(O)c(O)c1,119%
7,C[C@@H](O)[C@H](N)C(=O)O [threonine],234%
8,CN1[C@@H]2CC[C@H]1C[C@@H](OC(c1ccccc1)c1ccccc1)C2 [benzatropine],177%
9,CN1CCCC(CC2c3ccccc3Sc3ccccc32)C1 (stereo not given) [metixene],336%
10,CCCCCCOC(=O)NC(=N)c1ccc(NCc2nc3cc(C(=O)N(CCC(=O)OCC)c4ccccn4)ccc3n2C)cc1,284%
11,COC(=O)C1=C(C)NC(C)=C(C(=O)OCCN(C)Cc2ccccc2)C1c1cccc([N+](=O)[O-])c1 (stereo not given) [nicardipine],142% and 244%
12,CC(C)NC[C@H](O)c1ccc(O)c(O)c1 [levisoprenaline],176%
13,CCC(C/C=C/c1ccccc1)(c1ccccc1)N(C)CC1CC1 (stereo not given) [igmesine],150%
14,Nc1nc(=O)c2nc(CNc3ccc(C(=O)N[C@@H](CCC(=O)O)C(=O)O)cc3)cnc2[nH]1 [folic acid],156%
15,C[N+](C)(C)CCOC(N)=O [carbachol],75.8% and 208%
16,O=c1[nH]cnc2c([C@@H]3N[C@H](CO)[C@@H](O)[C@H]3O)c[nH]c12 [forodesine],199%
17,CC1NC(=O)COC1c1ccccc1 (stereo not given) [fenmetramide],285%
18,CCOC(=S)SSC(=S)OCC [dixanthogen],92.7%
19,c1ccc([C@H]2CN3CCSC3=N2)cc1,147%
20,CCCCC[C@H](O)/C=C/[C@@H]1[C@@H](C/C=C\CCCC(=O)O)[C@@H](O)C[C@H]1O [Dinoprost],253%

row,SMILES,percent viability
1,CCCC1([C@H](O)C/C=C/[C@H]2[C@H](O)CC(=O)[C@@H]2CCCCCCC(=O)OC)CCC1 [(R)-Butaprost],134%
2,CCC(=O)c1ccc2c(c1)N(CCCN1CCN(CCO)CC1)c1ccccc1S2 [carfenazine],531%
3,CC(C)[C@H]1CC[C@H](C)C[C@@H]1O [racementhol],148%
4,CC(C)(CO)[C@@H](O)C(=O)NCCC(=O)O [calcium pantothenate],179%
5,Oc1ccc2ccccc2c1,415%
6,CNC[C@H](O)[C@@H](O)[C@H](O)[C@H](O)CO [meglumine],116%
7,C[N+](C)(C)CCOP(=O)(O)OP(=O)([O-])OC[C@H]1O[C@@H](n2ccc(N)nc2=O)[C@H](O)[C@@H]1O [citicoline],86.3%
8,Brc1c(NC2=NCCN2)ccc2nccnc12 [brimonidine],166%
9,CN(CC1(C)CCCO1)S(=O)(=O)c1ccc(Cl)c(S(N)(=O)=O)c1 (stereo not given) [mefruside],242%
10,C[C@H](NC(=O)[C@@H]1CCC(=O)N1)C(=O)N[C@@H](CCCCN)C(=O)N[C@@H](CO)C(=O)N[C@@H](CCC(N)=O)C(=O)NCC(=O)NCC(=O)N[C@@H](CO)C(=O)N[C@@H](CC(N)=O)C(=O)O [nonathymulin],106%
11,CC(C)Cc1ccc(C(C)C(=O)O)cc1 (stereo not given) [ibuprofen],235% and 174%
12,Cc1cc2cc3c(C)cc(=O)oc3c(C)c2o1 [trioxysalen],135%
13,COc1ccc2cc([C@H](C)CO)ccc2c1,330%
14,O=C(c1cc(O)c(O)c(O)c1)c1ccc(O)c(O)c1O [exifone],53.4%
15,Cc1cc2c(s1)Nc1ccccc1N=C2N1CCN(C)CC1,282%
16,CCCCC1(COC(=O)CCC(=O)O)C(=O)N(c2ccccc2)N(c2ccccc2)C1=O [suxibuzone],161%
17,OCC(O)C(O)C(O)C(O)CO (stereo not given),333%
18,CC(=O)N[C@@H](CCC(N)=O)C(=O)O [aceglutamide],184%
19,CO[C@H](C(=O)[C@@H](O)[C@@H](C)O)[C@@H]1Cc2cc3cc(O[C@H]4C[C@@H](O[C@H]5C[C@@H](O)[C@H](O)[C@@H](C)O5)[C@H](O)[C@@H](C)O4)c(C)c(O)c3c(O)c2C(=O)[C@H]1O[C@H]1C[C@@H](O[C@H]2C[C@@H](O[C@H]3C[C@](C)(O)[C@H](O)[C@@H](C)O3)[C@@H](O)[C@@H](C)O2)[C@H](O)[C@@H](C)O1 [Mithracin],18.2%
20,C[C@H]1[C@H](NC(=O)/C(=N\OC(C)(C)C(=O)O)c2csc(N)n2)C(=O)N1S(=O)(=O)O [Azactam],210%

# Rewritten with tabs: 3 of the compounds above
row	SMILES	percent viability
2	CCC(=O)c1ccc2c(c1)N(CCCN1CCN(CCO)CC1)c1ccccc1S2 [carfenazine]	531%
3	CC(C)[C@H]1CC[C@H](C)C[C@@H]1O [racementhol]	148%
4	CC(C)(CO)[C@@H](O)C(=O)NCCC(=O)O [calcium pantothenate]	179%
